{"source": "patent US8841077B2", "about": "“Biomarkers for amyotrophic lateral sclerosis and methods using the same” (Massachusetts General Hospital, priority 2006, dated 2014)", "note": "Square brackets hold non-standard residues; d marks the D form. Peptide text beside a SMILES is read from it."}
{"experiment": "Metabolomic profiling of blood plasma, 62 ALS subjects vs 62 control subjects (Example 3; Tables 7, 8)", "assay_type": "in vivo, human", "settings": "blood plasma; ALS mean level compared to control mean level; positive = increase in ALS", "units": {"% change in ALS": "%"}}
{"compound": "C[n+]1cccc(C(N)=O)c1", "% change in ALS": 2}
{"compound": "COc1cc(C(O)CN)ccc1O", "note": "(stereo not shown) [Normetanephrine]", "% change in ALS": 23}
{"compound": "CCCCCCCCCCCCCCCCO", "note": "[Metabolite 1-Hexadecanol, 1-Hexadecanol]", "% change in ALS": "−16"}
{"compound": "N[C@@H](Cc1ccc(O)c([N+](=O)[O-])c1)C(=O)O", "note": "[Metabolite 3-nitro-L-tyrosine, 3-nitro-L-tyrosine]", "% change in ALS": "−5"}
{"compound": "CCCCCCCC/C=C/CCCCCCCC(=O)O", "note": "[elaidic acid]", "% change in ALS": 9}
{"compound": "CCC(C)C(=O)C(=O)O", "note": "(stereo not shown) [3-methyl-2-oxovaleric acid]", "% change in ALS": "−9"}
{"compound": "CC(CN)C(=O)O", "note": "(stereo not shown) [Metabolite 3-amino-isobutyrate, 3-amino-isobutyrate]", "% change in ALS": "−7"}
{"compound": "OC[C@@H](O)[C@@H](O)[C@H](O)[C@H](O)CO", "note": "[Mannitol]", "% change in ALS": 38}
{"compound": "N=C(N)NCCC[C@H](N)C(=O)O", "note": "[Metabolite - 3027 retired: arginine]", "% change in ALS": "−8"}
{"compound": "O=P(O)(O)OC[C@H]1O[C@H](O)[C@H](O)[C@@H]1O", "note": "[alpha-D-ribose-5-phosphate]", "% change in ALS": 22}
{"compound": "O=C(O)CNC(=O)c1ccccc1", "note": "[Metabolite - 3604 retired: CL adduct of hippuric acid]", "% change in ALS": 1}
{"compound": "O=C[C@@H](O)[C@@H](O)[C@H](O)CO", "note": "[D-lyxose]", "% change in ALS": "−16"}
{"compound": "N[C@H](CCC[C@H](N)C(=O)O)C(=O)O", "note": "[diaminopimelic acid]", "% change in ALS": 7}
{"compound": "OC[C@@H](O)[C@H](O)[C@@H](O)CO", "note": "[Xylitol]", "% change in ALS": 7}
{"compound": "Phosphate", "% change in ALS": 4}
{"compound": "CC(O)C(=O)O", "note": "(stereo not shown) [Metabolite - 3316 retired: lactate]", "% change in ALS": "−2"}
{"compound": "CC[C@H](O)C(=O)O", "% change in ALS": 21}
{"compound": "O=CC(O)CO", "note": "(stereo not shown) [Glyceraldehydes]", "% change in ALS": 38}
{"compound": "N[C@@H](Cc1ccc(O)c(Cl)c1)C(=O)O", "note": "[Metabolite 3-chloro-L-tyrosine, 3-chloro-L-tyrosine]", "% change in ALS": 1}
{"compound": "O=C(O)[C@H](O)[C@@H](O)[C@H](O)[C@H](O)COP(=O)(O)O", "note": "[6-phosphogluconic acid]", "% change in ALS": "−22"}
{"compound": "C[C@@H](N)C(=O)N[C@H](C)C(=O)O", "note": "[D-alanyl-D-alanine] (H-[dA]-[dA]-OH)", "% change in ALS": 7}
{"compound": "O=Cc1ccc(O)cc1", "% change in ALS": 12}
{"compound": "NCCc1c[nH]c2ccccc12", "note": "[Tryptamine]", "% change in ALS": 5}
{"compound": "O=C(O)C(O)Cc1c[nH]c2ccccc12", "note": "(racemic)", "% change in ALS": 3}
{"compound": "CC(=O)N[C@@H](C)C(=O)O", "note": "[N-acetyl-L-alanine]", "% change in ALS": 3}
{"experiment": "Metabolomic profiling of blood plasma, 62 ALS subjects vs 62 control subjects (Example 3; Tables 7, 8)", "assay_type": "in vivo, human", "settings": "blood plasma; ALS mean level vs control mean level; 62 ALS vs 62 control subjects; analytical platform GC-MS", "units": {"% change in ALS": "%"}}
{"compound": "COc1cc(C(O)CN)ccc1O", "note": "(stereo not shown) [Normetanephrine]", "% change in ALS": 23}
{"compound": "CCCCCCCCCCCCCCCCO", "note": "[Metabolite 1-Hexadecanol, 1-Hexadecanol]", "% change in ALS": "−16"}
{"compound": "N[C@@H](Cc1ccc(O)c([N+](=O)[O-])c1)C(=O)O", "note": "[Metabolite 3-nitro-L-tyrosine, 3-nitro-L-tyrosine]", "% change in ALS": "−5"}
{"compound": "CCCCCCCC/C=C/CCCCCCCC(=O)O", "note": "[elaidic acid]", "% change in ALS": 9}
{"compound": "CCC(C)C(=O)C(=O)O", "note": "(stereo not shown) [3-methyl-2-oxovaleric acid]", "% change in ALS": "−9"}
{"compound": "CC(CN)C(=O)O", "note": "(stereo not shown) [Metabolite 3-amino-isobutyrate, 3-amino-isobutyrate]", "% change in ALS": "−7"}
{"compound": "OC[C@@H](O)[C@@H](O)[C@H](O)[C@H](O)CO", "note": "[Mannitol]", "% change in ALS": 38}
{"compound": "N=C(N)NCCC[C@H](N)C(=O)O", "note": "[Metabolite - 3027 retired: arginine]", "% change in ALS": "−8"}
{"compound": "O=C[C@@H](O)[C@@H](O)[C@H](O)CO", "note": "[D-lyxose]", "% change in ALS": "−16"}
{"compound": "Phosphate", "% change in ALS": 4}
{"compound": "CC[C@H](O)C(=O)O", "% change in ALS": 21}
{"compound": "O=CC(O)CO", "note": "(stereo not shown) [Glyceraldehydes]", "% change in ALS": 38}
{"compound": "NCCc1c[nH]c2ccccc12", "note": "[Tryptamine]", "% change in ALS": 5}
{"compound": "CC(=O)N[C@@H](C)C(=O)O", "note": "[N-acetyl-L-alanine]", "% change in ALS": 3}
{"experiment": "Metabolomic profiling of blood plasma, 62 ALS subjects vs 62 control subjects (Example 3; Tables 7, 8)", "assay_type": "in vivo, human", "settings": "blood plasma; ALS mean level vs control mean level; 62 ALS vs 62 control subjects; analytical platform LC-MS", "units": {"% change in ALS": "%"}}
{"compound": "O=P(O)(O)OC[C@H]1O[C@H](O)[C@H](O)[C@@H]1O", "note": "[alpha-D-ribose-5-phosphate]", "% change in ALS": 22}
{"compound": "N[C@H](CCC[C@H](N)C(=O)O)C(=O)O", "note": "[diaminopimelic acid]", "% change in ALS": 7}
{"compound": "OC[C@@H](O)[C@H](O)[C@@H](O)CO", "note": "[Xylitol]", "% change in ALS": 7}
{"compound": "O=C(O)[C@H](O)[C@@H](O)[C@H](O)[C@H](O)COP(=O)(O)O", "note": "[6-phosphogluconic acid]", "% change in ALS": "−22"}
{"compound": "C[C@@H](N)C(=O)N[C@H](C)C(=O)O", "note": "[D-alanyl-D-alanine] (H-[dA]-[dA]-OH)", "% change in ALS": 7}
{"compound": "O=Cc1ccc(O)cc1", "% change in ALS": 12}
{"compound": "O=C(O)C(O)Cc1c[nH]c2ccccc12", "note": "(racemic)", "% change in ALS": 3}
{"experiment": "Metabolomic profiling of blood plasma, 62 ALS subjects vs 62 control subjects (Example 3; Tables 7, 8)", "assay_type": "in vivo, human", "settings": "human, in vivo", "units": {"% change in ALS": "%"}}
{"compound": "CNC[C@H](O)c1ccc(O)c(O)c1", "note": "[Epinephrine]", "% change in ALS": 3}
{"experiment": "Metabolomic profiling (GC-MS/LC-MS) of CSF samples, ALS subjects vs control subjects (Example 1; Tables 3, 4)", "assay_type": "in vivo, human", "settings": "CSF; ALS mean as compared to control mean; T-tests of ALS vs. Controls", "units": {"% change in ALS": "%"}}
{"compound": "C=C(OP(=O)(O)O)C(=O)O", "note": "[Phosphoenolpyruvate - 35, Phosphoenolpyruvate]", "% change in ALS": "−2"}
{"compound": "C[N+](C)(C)CCCC[C@H](N)C(=O)[O-]", "note": "[N-6-trimethyl-l-lysine - 35, N-6-trimethyl-l-lysine]", "% change in ALS": 10}
{"experiment": "Metabolomic profiling (GC-MS/LC-MS) of CSF samples, ALS subjects vs control subjects (Example 1; Tables 3, 4)", "assay_type": "in vivo, human", "settings": "CSF; ALS mean as compared to the control mean", "units": {"% change in ALS": "%"}}
{"compound": "C=C(OP(=O)(O)O)C(=O)O", "note": "[Phosphoenolpyruvate - 35, Phosphoenolpyruvate]", "% change in ALS": "−2"}
{"compound": "C[N+](C)(C)CCCC[C@H](N)C(=O)[O-]", "note": "[N-6-trimethyl-l-lysine - 35, N-6-trimethyl-l-lysine]", "% change in ALS": 10}
{"experiment": "Metabolomic profiling (GC-MS/LC-MS) of CSF samples, ALS subjects vs control subjects (Example 1; Tables 3, 4)", "assay_type": "in vivo, human", "settings": "CSF; mean in ALS samples as compared to control samples"}
{"compound": "C=C(OP(=O)(O)O)C(=O)O", "note": "[Phosphoenolpyruvate - 35, Phosphoenolpyruvate]", "Increase (+) or Decrease (−) in ALS": "−"}
{"compound": "C[N+](C)(C)CCCC[C@H](N)C(=O)[O-]", "note": "[N-6-trimethyl-l-lysine - 35, N-6-trimethyl-l-lysine]", "Increase (+) or Decrease (−) in ALS": "+"}
{"experiment": "Metabolomic profiling (GC-MS/LC-MS) of CSF samples, ALS subjects vs control subjects (Example 1; Tables 3, 4)", "assay_type": "in vivo, human", "settings": "CSF; mean in ALS samples vs control samples; T-tests"}
{"compound": "C=C(OP(=O)(O)O)C(=O)O", "note": "[Phosphoenolpyruvate - 35, Phosphoenolpyruvate]", "Increase (+) or Decrease (−) in ALS": "−"}
{"compound": "C[N+](C)(C)CCCC[C@H](N)C(=O)[O-]", "note": "[N-6-trimethyl-l-lysine - 35, N-6-trimethyl-l-lysine]", "Increase (+) or Decrease (−) in ALS": "+"}
